Measured values as given in ChEMBL document CHEMBL4043309, “Computer-Aided Discovery and Characterization of Novel Ebola Virus Inhibitors” (J Med Chem, 2018).

Assay: cells
Format: cell-based, Ebolavirus
Conditions: Orthoebolavirus, HeLa, 4.5 h

Row | Structure (SMILES) | IC50 [µM]
1 | CC(C)(C)c1ccc(C(=O)CCCN2CCC(OC(c3ccccc3)c3ccccc3)CC2)cc1 [EBASTINE] | 9.56
2 | CC/C(=C(\c1ccccc1)c1ccc(OCCN(C)C)cc1)c1ccccc1 [TAMOXIFEN] | 0.73
